Paper PMC9366055

Key:
[1] = target: T1, GST-HpaB (X. euvesicatoria) (UniProt Q9WWG3); test: pull-down; GST or GST fusion from E. coli BL21 (DE3) lysate immobilised on glutathione sepharose, washed, incubated with a bacterial lysate containing the c-Myc-tagged partner for 2 h at 4°C; eluted with Laemmli buffer; immunoblot with c-Myc- and GST-specific antibodies; only the target purified
T1 sequence: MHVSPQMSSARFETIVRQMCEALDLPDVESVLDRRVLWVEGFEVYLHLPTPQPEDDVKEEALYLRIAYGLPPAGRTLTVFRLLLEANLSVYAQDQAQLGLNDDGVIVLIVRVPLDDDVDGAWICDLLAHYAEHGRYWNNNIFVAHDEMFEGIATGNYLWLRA

[2] = target: T2, GST-HrcQ (X. euvesicatoria) (UniProt Q9WWF7); test: as above
T2 sequence: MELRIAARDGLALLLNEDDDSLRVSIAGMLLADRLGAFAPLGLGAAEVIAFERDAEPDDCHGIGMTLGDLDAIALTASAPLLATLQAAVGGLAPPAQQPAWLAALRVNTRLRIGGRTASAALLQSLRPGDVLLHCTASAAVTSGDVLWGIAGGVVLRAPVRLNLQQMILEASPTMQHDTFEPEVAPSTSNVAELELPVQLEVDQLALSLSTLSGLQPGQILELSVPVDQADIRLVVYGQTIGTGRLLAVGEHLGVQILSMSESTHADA

HpaA_(∆2-70)-c-Myc (X. euvesicatoria strain 85-10) (domain or fragment)
binding [1]: binds
binding [2]: binds

No constants are given. Whether binding was seen depends on the method and setting. In cells and extracts the contact can be indirect. Binding calls can cover weak binding; strength is not graded here. Tags and fused reporters may be left off the sequences shown.
